The list shows a part of the results. No stated cut-off is given here; in the data, active = 150% or more and inactive = the rest. Many values rest on one well or one pass, so single values are uncertain.
test system: Staphylococcus aureus JE2-lux inside RAW 264.7 macrophages; test: intracellular bacterial bioluminescence relative to DMSO vehicle; higher = higher intracellular bacterial metabolic activity; conditions: 10 µM; treatment time 4 h; gentamicin 50 µg/ml
Method: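 RAW 264.7 macrophages infected with bioluminescent MRSA JE2-lux (MOI 100) were dispensed into 384-well plates with 10 µM compound in the presence of 50 µg/ml gentamicin. After 4 h at 37 °C, bacterial bioluminescence (a proxy for intracellular bacterial metabolic activity) and host cell viability (CellTiter-Fluor) were read and normalised to 0.1% DMSO vehicle controls. Single-pass screen of the UNC CICBDD kinase-targeted library (>4,700 compounds).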

Intracellular bacterial bioluminescence, inactive:
Cc1cc2c(c(=O)n1CCO)C(c1cccc(F)c1)C(C#N)=C(N)O2 (stereo unspecified) 103%, Cn1c(=O)cc2c3c(c(Nc4ccccc4)ccc31)C(=O)c1ccccc1-2 106%, COc1cc(/C=C2\SC(=S)N(c3ccc(O)cc3)C2=O)cc(OC)c1OC 82.7%, Cc1cccc(Cn2c(N(C)Cc3ccccc3)nc3c2c(=O)[nH]c(=O)n3C)c1 79.4%, CCN1CCN(c2nn3c(NC(C)(C)C)c(-c4ccc(Cl)cc4)nc3s2)CC1 86.1%, COc1ccc(S(=O)(=O)Nc2ccc(N3CCCN(c4ncccn4)CC3)cc2C(=O)O)cc1 97.6%, COC(=O)c1c(NC(=O)Nc2c(-c3cccnc3)[nH]c3ccc(F)cc23)sc2c1CCCC2 66.1%, CCCNC(=O)Cn1nc(-c2ccc(C)cc2)c2cnc3ccc(CC)cc3c21 87.9%, COCCNc1c(-c2ccc(OC)c(O)c2)nc2sc3cc(Cl)ccc3n12 90.6%, O=C(c1ncoc1-c1ccc(F)cc1)N1CCC2(CC1)C(=O)NCN2c1ccccc1 107%, O=C(NCc1cccnc1)c1cnn2c(C(F)(F)F)cc(-c3ccccc3)nc12 79.5%, CCOC(=O)c1ccc(Nc2nc(N)c(C(=O)c3cccc(Cl)c3)s2)cc1 89.4%, Clc1cccc2nc3n(c12)CCN(Cc1ccccc1)C3 86.5%, CC1(C)COc2ccc(NC(=O)Cc3cccs3)cc2NC1=O 100%, Cn1c(=O)[nH]c(=O)c2cnc(-c3ccncc3)nc21 124%, O=C(Cc1ccccc1)NN1C(=O)/C(=C/C=C/c2ccccc2)SC1=S 85.4%, Nc1ncnc2c1c1nc3ccccc3nc1n2CCc1ccccc1 147%, CS(=O)(=O)Nc1nc2ccc(NC(=O)c3cccnc3)cc2s1 114%, CS(=O)CCNC(=O)Nc1cccc2ccccc12 (stereo unspecified) 104%, CCc1ccccc1NC(=O)NC1CC2CCCC(C1)N2Cc1ccccc1 (stereo unspecified) 111%, O=C(NC1CCCC1)c1cnc(N2CCCCC2)c2ccccc12 104%, CCC(Sc1nncn1C)C(=O)Nc1nnc(-c2ccc(F)cc2)s1 (stereo unspecified) 108%, CC1CC(C)CN(S(=O)(=O)c2ccc(C(=O)Nc3sccc3C(N)=O)cc2)C1 (stereo unspecified) 89.9%, COc1ccc(OC)c2sc(NNC(=O)c3ccc(S(=O)(=O)N(C)C)cc3)nc12 110%, CCC(=O)Nc1c(C(=O)OC)sc2ccccc12 109%, c1ccc(NCc2nnc3c(Nc4ccccc4)nc4ccccc4n23)cc1 129%, Cc1nc2sc(C(c3ccco3)N3CC(C)CC(C)C3)c(O)n2n1 (stereo unspecified) 97.3%, CC1CCCN(S(=O)(=O)c2ccc(C(=O)/C(C#N)=C3\Nc4ccccc4N3C)cc2)C1 (stereo unspecified) 105%, Cc1ccc(Cl)cc1NC(=O)NCCCn1c(C(F)(F)F)nc2cccnc21 79%, Cc1nnc(NC(=O)CSc2nnc(CNC(=O)c3ccco3)o2)s1 103%, CCCN1CCN(C(=O)Cn2c(C)nc3onc(C)c3c2=O)CC1 108%, Cc1sc2nc(C)n(C3CCN(C(=O)Cc4ccsc4)CC3)c(=O)c2c1C 98.6%, CCOc1ccc(Nc2c(CC)c(C)c(C#N)c3nc4ccccc4n23)cc1 101%, NC(=O)CSc1cn(Cc2ccc(Cl)cc2)c2ccccc12 56.6%, c1cncc(CSc2ncnc3c2sc2nc4ccccc4cc23)c1 117%, CCN1CCCC1CNCc1cc2c(C)cc(C)cc2n2c(=O)n(C)nc12 (stereo unspecified) 89.6%, O=C(Nc1nc2ccc3ccccc3c2s1)c1cccc(N2C(=O)CCC2=O)c1 88.6%, COc1cccc(/N=C2\NC(=O)/C(=C3/C(=O)Nc4ccccc43)S2)c1 85.2%, Cn1cnc2cc(-c3noc(CNC(=O)C(c4ccccc4)c4ccccc4)n3)ccc21 97.8%, Cc1cc(NC(=O)CSc2c(C)[nH]c3ccccc23)no1 98.5%, O=C1CC(Nc2ccc(N3CCOCC3)cc2)C(=O)N1c1ccc(Cl)c(C(F)(F)F)c1 (stereo unspecified) 110%, CCN(CC)CCNC(=O)c1cc2cc([NH+]([O-])O)ccc2oc1=O (stereo unspecified) 108%, O=C(CC(=O)N/N=C1\C(=O)Nc2ccccc21)N/N=C1\C(=O)Nc2ccccc21 79%, COc1cccc(C(=O)COC(=O)c2cc3cc(Br)cc(OC)c3oc2=O)c1 120%, Cc1cc(SCC(=O)Nc2ccccc2)n2c(nc3ccccc32)c1C#N 92.5%, Cc1ccc2cc(CN(Cc3ccccc3)C(=O)c3cccnc3)c(Cl)nc2c1 78.9%, C=CCn1/c(=N/C(=O)c2nc3ccccc3s2)sc2cc(NC(C)=O)ccc21 115%, COc1ccc(N2CCN(c3cc(C)nc4nncn34)CC2)cc1 127%, COC(=O)c1cccc(NC(=O)N2CCC(c3nnc(C(=O)Nc4ccccc4F)s3)CC2)c1 58.5%, CCOC(=O)c1cc(C)nc2c1c(=O)n(Cc1cccc(C(F)(F)F)c1)c(=O)n2C 105%, CCOc1ccc(CCNC(=O)COc2ncnc3oc(C)c(C)c23)cc1OCC 50.1%, Cc1ccc(/C=C(/C#N)C(=O)Nc2sc3c(c2C(N)=O)CCCC3)o1 85.7%, CCn1c(SCC(=O)Nc2cc(C)on2)nc2c(c1=O)SC(C)C2 (stereo unspecified) 73.3%, CCc1ccc(N2C(=O)SC(Nc3ccc(S(N)(=O)=O)cc3)C2=O)cc1 (stereo unspecified) 105%, CCOC(=O)c1sc2nc(NC(=O)c3ccccc3OC)sc2c1C 67.4%, CCOC(=O)c1cnc(SCC(=O)c2ccc(F)cc2)nc1N 104%, Cc1occc1-c1nnc(SCC(=O)NCCc2nc3ccccc3[nH]2)o1 115%, CC(CNc1nccn(-c2ccc3c(c2)OCO3)c1=O)c1ccccc1 (stereo unspecified) 66%, COc1cc(NS(=O)(=O)c2ccc(NC(=O)c3ccc(Cl)cc3Cl)cc2)ncn1 96.6%, COc1ccc(-n2cnc3c(C)nc(-n4nc(C)cc4C)nc32)cc1 42%, COc1ccccc1OCC(=O)Nn1cnc2c(cnn2-c2ccc(C)cc2)c1=O 112%, COCCCN1CCn2c(nc3cc(NC(=O)c4ccccc4OC)ccc32)C1 117%, COc1cccc(C(=O)OCn2nnc3ccccc3c2=O)c1OC 84.6%, O=C(O)CC1SC(Nc2ccc(O)cc2)=NC1=O (stereo unspecified) 100%, CSc1nnc(C)c(=O)n1COC(=O)/C=C/c1ccc2c(c1)OCO2 76.1%, Cc1cc(OC(=O)c2ccc(S(=O)(=O)N3CCOCC3)cc2)c([N+](=O)[O-])c(=O)[nH]1 111%, CCCc1cc(C(=O)N2CCCC2c2cccs2)no1 (stereo unspecified) 114%, COc1ccc(Cl)cc1NC(=O)C(C)n1nc(-c2cc(C)oc2C)cc(N)c1=O (stereo unspecified) 78.1%, CCc1nnc(NC(=O)CSc2ncnc3c2cnn3-c2ccc(Cl)cc2)s1 112%, Cc1ccc(NC(=O)Cn2nnc(-c3c[nH]c4ccccc34)n2)c(C)c1 104%, O=C(Nc1ccc(Br)cc1)C1CCN(C(=O)NCc2ccccc2)CC1 49%, Cc1ccc(C)c(N(C(=O)c2csnn2)C(C(=O)NC2CCCCC2)c2ccccn2)c1 (stereo unspecified) 71.3%, COC(=O)c1ccc(CSc2nc3c(c(=O)n2-c2ccccc2)SCC3)o1 38.3%, Cn1c(=O)c2c(nc(Br)n2CC(=O)c2ccccc2)n(C)c1=O 96%, O=c1[nH]c2ccccc2n1CCCOc1ccc(Cl)cc1 67.8%, CN1CCOc2ccc(NC(=O)CN3C(=O)c4ccccc4C3=O)cc2C1=O 75.7%, CC1=NN(c2ccccc2)C(=N)/C1=N\Nc1cccnc1 80.9%, Cc1cc2ccccc2n2c(=O)n(CCNC(=O)C3CC(=O)N(C)C3)nc12 (stereo unspecified) 103%, O=C(Nc1ccc(Cl)cc1)c1ccc(-c2nc3ccccc3s2)s1 128%, COc1ccc(-c2nnc3n2N=C(c2cccc([N+](=O)[O-])c2)CS3)cc1 103%, Cc1cc(Cl)ccc1Nc1nc(N)c(C(=O)c2c[nH]c3ccccc23)s1 49.7%, Cc1ccc(CNC(=O)c2ccc(Cn3c(=O)[nH]c4ccsc4c3=O)cc2)cc1 88%, Cc1cc(NC(=O)CN2CC3CC(C2)c2cccc(=O)n2C3)nc2c1c(=O)oc1ccccc12 (stereo unspecified) 96.7%, COc1ccc(C2CC(=O)c3cnc(NC4OC(=O)c5ccccc54)nc3C2)cc1OC (stereo unspecified) 134%, CCOC(=O)c1c(NC(=S)Nc2c(C)n(C)n(-c3ccccc3)c2=O)sc2c1CCCC2 86%, O=C(Nc1cccc(F)c1)c1cccc(-c2ccc(N3CCCCC3)nn2)c1 103%, O=C(c1ccc(S(=O)(=O)N2CCCCC2)cc1)N1CCN=C1SCc1ccc([N+](=O)[O-])cc1 41.2%, COc1ccc(NC(=O)Cn2cc(C(=O)c3ccc(F)cc3)c(=O)c3ccccc32)c(OC)c1 87.4%, COc1cccc2sc(Nc3nc4c(F)cc(F)cc4s3)nc12 76%, C=CCNC(=O)c1sc2nc3c(C)cccc3cc2c1N 78.6%

Intracellular bacterial bioluminescence, active:
COc1ccc(C(=O)CSc2nc3[nH]ncc3c(=O)[nH]2)cc1 151%
